Publication PMC11045800
No constants are given. Whether binding was seen depends on the method and setting. For part of these data: Binding seen in cells or lysates may run through a third protein. Some results given as binding are weak or reduced against the parent protein; the word gives no strength.

Legend:
[1] = target: T1, TANK-binding kinase 1 (TBK1), endogenous in AC16 human cardiomyocytes (human (endogenous in AC16)), Q9UHD2; experiment: native gel or EMSA; immunoblot of native TBK1 monomer and dimer in cardiomyocytes with TRIM29 knockout (mouse) or knockdown (human AC16), infected with CVB3 or EMCV for 6 h at MOI 5; details: remark: other sources report otherwise
T1 chain: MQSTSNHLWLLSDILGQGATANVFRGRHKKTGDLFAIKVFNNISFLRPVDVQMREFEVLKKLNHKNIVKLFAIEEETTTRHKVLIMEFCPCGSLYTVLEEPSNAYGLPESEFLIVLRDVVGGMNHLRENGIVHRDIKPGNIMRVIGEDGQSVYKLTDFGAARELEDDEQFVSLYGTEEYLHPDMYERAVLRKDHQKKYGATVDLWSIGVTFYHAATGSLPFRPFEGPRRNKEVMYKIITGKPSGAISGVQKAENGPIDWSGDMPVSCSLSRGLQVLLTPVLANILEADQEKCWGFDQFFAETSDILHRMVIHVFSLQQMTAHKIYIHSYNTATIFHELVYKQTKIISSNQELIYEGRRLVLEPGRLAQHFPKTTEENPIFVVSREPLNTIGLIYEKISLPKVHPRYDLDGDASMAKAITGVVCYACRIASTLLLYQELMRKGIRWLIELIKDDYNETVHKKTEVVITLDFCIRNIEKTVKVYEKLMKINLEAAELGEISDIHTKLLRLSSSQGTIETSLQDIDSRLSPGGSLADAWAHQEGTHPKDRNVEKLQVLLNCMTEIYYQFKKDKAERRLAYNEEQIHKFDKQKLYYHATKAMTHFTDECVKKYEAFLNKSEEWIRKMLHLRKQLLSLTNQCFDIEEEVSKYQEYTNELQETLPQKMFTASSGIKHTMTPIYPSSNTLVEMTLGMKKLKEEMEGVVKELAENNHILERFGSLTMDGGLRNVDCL

[2] = target: T2, active phosphorylated PERK (pPERK), endogenous in mouse primary neonatal cardiomyocytes (mouse (endogenous in primary neonatal cardiomyocytes)) (UniProt Q9Z2B5); experiment: co-IP; endogenous proteins; whole-cell lysates of mouse primary neonatal cardiomyocytes (Trim29fl/fl) infected with CVB3 at MOI 5 and treated with DMSO for 6 h; anti-pPERK or control IgG
T2 sequence (chain, phosphorylated (site not stated)): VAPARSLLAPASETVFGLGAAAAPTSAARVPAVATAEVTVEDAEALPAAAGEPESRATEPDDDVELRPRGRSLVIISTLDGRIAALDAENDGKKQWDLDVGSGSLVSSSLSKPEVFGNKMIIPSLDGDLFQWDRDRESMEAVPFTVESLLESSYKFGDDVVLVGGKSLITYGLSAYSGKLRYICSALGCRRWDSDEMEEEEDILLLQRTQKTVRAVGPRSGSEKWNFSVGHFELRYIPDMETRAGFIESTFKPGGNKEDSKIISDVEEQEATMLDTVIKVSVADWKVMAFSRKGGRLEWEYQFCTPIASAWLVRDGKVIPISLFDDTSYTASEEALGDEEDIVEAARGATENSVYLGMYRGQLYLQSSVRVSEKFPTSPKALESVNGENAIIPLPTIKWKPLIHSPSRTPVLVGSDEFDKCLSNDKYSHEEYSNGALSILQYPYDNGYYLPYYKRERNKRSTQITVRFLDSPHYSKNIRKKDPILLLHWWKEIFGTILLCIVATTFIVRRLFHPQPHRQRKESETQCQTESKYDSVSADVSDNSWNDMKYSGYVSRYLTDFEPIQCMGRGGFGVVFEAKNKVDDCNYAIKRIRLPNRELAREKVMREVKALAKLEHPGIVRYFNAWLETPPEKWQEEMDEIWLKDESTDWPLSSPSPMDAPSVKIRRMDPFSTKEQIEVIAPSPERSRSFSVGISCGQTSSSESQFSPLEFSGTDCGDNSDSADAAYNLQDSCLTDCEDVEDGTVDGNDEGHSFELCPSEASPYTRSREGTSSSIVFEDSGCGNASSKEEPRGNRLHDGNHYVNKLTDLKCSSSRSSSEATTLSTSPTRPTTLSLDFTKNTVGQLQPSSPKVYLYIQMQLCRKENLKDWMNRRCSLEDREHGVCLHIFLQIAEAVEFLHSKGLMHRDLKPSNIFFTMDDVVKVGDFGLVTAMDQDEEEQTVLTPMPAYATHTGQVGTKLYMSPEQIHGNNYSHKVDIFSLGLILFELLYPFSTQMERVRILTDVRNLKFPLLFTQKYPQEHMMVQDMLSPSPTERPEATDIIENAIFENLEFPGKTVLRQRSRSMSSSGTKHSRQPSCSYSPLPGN

[3] = target: T3, protein kinase RNA-like ER kinase (PERK), endogenous in mouse primary neonatal cardiomyocytes (mouse (endogenous in primary neonatal cardiomyocytes)) (UniProt Q9Z2B5); experiment: co-IP; endogenous proteins; whole-cell lysates of mouse primary neonatal cardiomyocytes (Trim29fl/fl or WT MyHC-Cre) infected with CVB3 or EMCV for 6 h at MOI 5; anti-PERK or control IgG, protein A/G beads; blot with anti-TRIM29 and anti-PERK
T3 sequence: T2 sequence (chain, phosphorylated (site not stated))

B1: TANK-binding kinase 1 (TBK1), endogenous in AC16 human cardiomyocytes, Q9UHD2 1-729 (protein)
chain: T1 chain
binding [1]: binds

B2: TRIM29, endogenous in mouse primary neonatal cardiomyocytes (protein, UniProt Q8R2Q0 1-587)
chain: MEGADACRSNGASPEARDTRSPPGPSGSLENGTKADSKDTKTTNGHSGEVTEGKTLGSALKSGEGKSGLFSSNEWRRPIIQFVESVDDKGSSYFSMDSAEGRRSPYAGLQLGASKKPPVTFAEKGELRKSIFSEPRKPTVTIVEPGEVRRNSYPRADSSLLARAKSGSEEVLCDSCIGNKQKAVKSCLVCQASFCELHLKPHLEGAAFRDHQLLEPIRDFEARKCPLHGKTMELFCQTDQTCICYLCMFQEHKNHSTVTVEEAKAEKETELSLQKEQLQLKIIEIEDDVEKWQKEKDRIKSFTTNEKAILEQNFRDLVRELEKQKEEVRAALEQREQDAVDQVKVIVDALDERAKVLHEDKQTREQLHNISDSVLFLQEFGALMSNYSLPPPLPTYHVLLEGEGLGQSLGNCKDDLLNVCMRHVEKMCKADLSRNFIERNHMENGGDHRYMNSYTSSYGNEWSTPDTMKRYSMYLTPKGGGRTSYQPSSPSRLSKETNQKNFNNLYGTKGNYTSRVWEYTSTVQNSEDMPTVQGNSSFSLKGFPSLLRSQVPKAQPQTWKSGKQTLLSHYRPFYVNKGSGIGSNEAP
binding [2]: binds
binding [3]: binds
